Reference: article PMC4020751
These are yes or no findings as the source states them, for the method shown. For some of these results: Binding seen in cells or lysates may run through a third protein. Some entries that bind do so weakly or less than the wild type. Values belong to the binder of their own block, whether it stands above or below them.

The chains behind the UniProt entries cited, without tags or fusion partners. Where a name states a change or a piece, a line headed by the entry shows the natural chain unless it says otherwise. A line that says so, or that is headed by a name, gives the form on record, which may keep a tag or linker.
Htt103Q (huntingtin exon 1 fragment with an expanded polyQ domain, without NLS) (P42858, form named): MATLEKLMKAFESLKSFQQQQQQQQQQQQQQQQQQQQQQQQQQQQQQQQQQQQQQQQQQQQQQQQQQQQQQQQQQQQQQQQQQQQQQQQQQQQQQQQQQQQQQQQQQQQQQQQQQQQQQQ

Assays:
[1] = target: Htt103Q (huntingtin exon 1 fragment with an expanded polyQ domain, without NLS) (human) (UniProt P42858); test: co-IP; 400 uL aliquots of the monomeric gel filtration fractions of yeast lysate; Htt103Q precipitated with anti-GFP and Protein G beads; Pop2(1–159)-mRFP detected with anti-RFP
[2] = target: Htt103Q (huntingtin exon 1 fragment with an expanded polyQ domain, without NLS) (human) (UniProt P42858); test: co-IP; 400 uL aliquots of the high molecular weight gel filtration fractions of yeast lysate; Htt103Q precipitated with anti-GFP and Protein G beads; Pop2(1–159)-mRFP detected with anti-RFP
[3] = target: Htt103Q (huntingtin exon 1 fragment with an expanded polyQ domain, without NLS) (human) (UniProt P42858); test: SEC; yeast lysates (7 mg/mL total protein; 0.1% Triton X-100, 75 mM Tris pH 7.4, 150 mM NaCl, 1 mM EDTA) from cells expressing the proteins alone or together, on a Sephacryl S-200 column at 0.25 mL/min; 1 mL fractions analysed by Western blot

- binding [2]: binds
- binding [3]: binds
B1: Pop2(1–159)-mRFP (domain or fragment, UniProt P39008 1-159)
chain: MQSMNVQPRVLAVGGEQFFSQRQASEQHQQQNMGPQVYSPKVNRARMFPQGMPVNTINGSVNQEMNNAYLLKQKNEPLLTQQQQQQQQQQQPFNIGTPVSVASLPPGLNVLQQQQQQQQQQQQQQQGVGLNRPLASQLPKHLTNQSMPPIFLPPPNYLF
- binding [1]: no binding (condition: monomeric gel filtration fractions)

- binding [3]: no binding
B2: Pop2(1–147) (domain or fragment, UniProt P39008 1-147)
chain: MQSMNVQPRVLAVGGEQFFSQRQASEQHQQQNMGPQVYSPKVNRARMFPQGMPVNTINGSVNQEMNNAYLLKQKNEPLLTQQQQQQQQQQQPFNIGTPVSVASLPPGLNVLQQQQQQQQQQQQQQQGVGLNRPLASQLPKHLTNQSM
